Measured values as given in paper PMC12589655.
No constants are given. Whether binding was seen depends on the method and setting. In cells and extracts the contact can be indirect. Some results given as binding are weak or reduced against the parent protein; the word gives no strength.

Chains of the proteins cited; added tags and fusions are not shown. Lines headed by an entry give the natural chain unless they say otherwise; changes in a name come on top. A line that says so, or that is headed by a name, gives the form on record, which may keep a tag or linker. Residues count along the entry.
UniProt P22363: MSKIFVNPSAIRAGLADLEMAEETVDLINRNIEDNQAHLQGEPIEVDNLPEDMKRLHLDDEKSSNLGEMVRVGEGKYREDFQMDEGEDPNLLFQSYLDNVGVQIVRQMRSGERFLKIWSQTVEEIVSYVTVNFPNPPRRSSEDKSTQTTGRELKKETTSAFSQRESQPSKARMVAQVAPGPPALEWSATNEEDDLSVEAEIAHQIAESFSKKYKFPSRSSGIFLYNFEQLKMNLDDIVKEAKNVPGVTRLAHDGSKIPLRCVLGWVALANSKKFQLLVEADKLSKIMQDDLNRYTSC
GFP-P3 (rabies virus CVS-11 phosphoprotein, truncated isoform P3, residues 53-297, fused to GFP): residues 53-297 of P22363
UniProt Q13283: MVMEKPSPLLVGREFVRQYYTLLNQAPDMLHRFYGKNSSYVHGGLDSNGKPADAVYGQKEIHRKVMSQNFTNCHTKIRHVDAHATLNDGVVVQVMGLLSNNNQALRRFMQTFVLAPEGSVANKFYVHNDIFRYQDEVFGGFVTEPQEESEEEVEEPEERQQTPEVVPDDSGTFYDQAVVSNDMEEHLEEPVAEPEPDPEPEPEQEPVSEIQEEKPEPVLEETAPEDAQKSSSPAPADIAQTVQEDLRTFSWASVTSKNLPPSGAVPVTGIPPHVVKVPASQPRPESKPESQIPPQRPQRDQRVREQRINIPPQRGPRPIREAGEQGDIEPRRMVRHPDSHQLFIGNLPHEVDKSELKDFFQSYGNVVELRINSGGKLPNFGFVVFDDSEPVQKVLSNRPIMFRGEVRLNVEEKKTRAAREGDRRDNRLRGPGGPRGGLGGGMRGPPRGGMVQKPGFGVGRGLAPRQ
UniProt P06748: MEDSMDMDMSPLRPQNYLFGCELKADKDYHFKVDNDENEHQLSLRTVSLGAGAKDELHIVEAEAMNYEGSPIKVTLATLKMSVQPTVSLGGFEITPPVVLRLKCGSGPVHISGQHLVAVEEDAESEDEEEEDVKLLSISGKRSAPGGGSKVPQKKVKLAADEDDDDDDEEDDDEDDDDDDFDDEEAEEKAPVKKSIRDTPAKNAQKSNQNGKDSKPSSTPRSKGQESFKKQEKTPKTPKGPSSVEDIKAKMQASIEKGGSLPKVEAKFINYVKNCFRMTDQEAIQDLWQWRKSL

What was measured:
[1] = target: GFP-P3 (rabies virus CVS-11 phosphoprotein, truncated isoform P3, residues 53-297, fused to GFP) (rabies virus, strain CVS-11) (UniProt P22363); assay: co-IP
[2] = target: GFP-P1 (rabies virus CVS-11 phosphoprotein, full-length isoform P1, fused to GFP) (rabies virus, strain CVS-11) (UniProt P22363); assay: co-IP

Row | Substance | binding [1] | binding [2]
1 | G3BP1 (from UniProt Q13283 1-466) | binds | binds
2 | nucleophosmin (NPM1) (from UniProt P06748 1-294) | binds | binds
